In the test the target is T1, SMG7 (mouse (endogenous in ESCs)) (UniProt Q5RJH6).
T1 sequence: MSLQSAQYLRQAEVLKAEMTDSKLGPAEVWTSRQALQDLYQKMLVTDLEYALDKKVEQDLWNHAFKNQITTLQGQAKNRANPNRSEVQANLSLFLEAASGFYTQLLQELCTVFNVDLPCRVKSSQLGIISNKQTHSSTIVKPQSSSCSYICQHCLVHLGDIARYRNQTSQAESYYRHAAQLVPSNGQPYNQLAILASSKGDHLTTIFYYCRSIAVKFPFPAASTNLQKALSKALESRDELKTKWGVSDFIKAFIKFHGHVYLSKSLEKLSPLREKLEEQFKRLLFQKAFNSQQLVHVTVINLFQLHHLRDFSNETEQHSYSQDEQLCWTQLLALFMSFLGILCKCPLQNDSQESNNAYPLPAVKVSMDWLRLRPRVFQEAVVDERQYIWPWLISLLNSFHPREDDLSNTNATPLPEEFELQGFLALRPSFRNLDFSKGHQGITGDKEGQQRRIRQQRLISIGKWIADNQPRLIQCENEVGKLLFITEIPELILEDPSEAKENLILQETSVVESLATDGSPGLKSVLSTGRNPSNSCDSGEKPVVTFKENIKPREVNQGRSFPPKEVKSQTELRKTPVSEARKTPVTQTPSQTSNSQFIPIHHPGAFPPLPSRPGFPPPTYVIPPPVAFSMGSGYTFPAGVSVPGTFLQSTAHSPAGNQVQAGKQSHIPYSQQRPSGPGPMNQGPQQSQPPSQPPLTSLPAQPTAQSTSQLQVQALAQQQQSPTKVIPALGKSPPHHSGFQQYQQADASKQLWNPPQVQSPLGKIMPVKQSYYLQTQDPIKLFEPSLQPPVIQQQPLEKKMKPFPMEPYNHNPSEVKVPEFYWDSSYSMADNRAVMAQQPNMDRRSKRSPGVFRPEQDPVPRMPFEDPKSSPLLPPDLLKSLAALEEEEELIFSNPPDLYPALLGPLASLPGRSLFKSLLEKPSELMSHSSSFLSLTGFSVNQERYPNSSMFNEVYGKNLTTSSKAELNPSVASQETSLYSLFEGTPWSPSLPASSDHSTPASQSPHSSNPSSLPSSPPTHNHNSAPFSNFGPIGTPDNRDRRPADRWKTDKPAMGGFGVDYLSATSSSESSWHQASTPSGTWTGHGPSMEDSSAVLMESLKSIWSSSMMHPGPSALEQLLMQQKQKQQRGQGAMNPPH
The test is described as follows: co-IP; SMG7 or 3xFlag-SMG5 (anti-Flag M2 on Dynabeads) precipitated from 1 mg ESC lysate after cyanase-mediated nucleic acid removal; 150 mM NaCl, 3 h at 4°C; Western blot; WT, Smg5 KO, Smg5/Smg6 dKO and Smg5 Flag rescue-based lines. For orientation: A western blot detects proteins with antibodies after separation by electrophoresis.

By UniProt entry, the sequences of proteins in these tests, tags left out.
UniProt Q9EPU0: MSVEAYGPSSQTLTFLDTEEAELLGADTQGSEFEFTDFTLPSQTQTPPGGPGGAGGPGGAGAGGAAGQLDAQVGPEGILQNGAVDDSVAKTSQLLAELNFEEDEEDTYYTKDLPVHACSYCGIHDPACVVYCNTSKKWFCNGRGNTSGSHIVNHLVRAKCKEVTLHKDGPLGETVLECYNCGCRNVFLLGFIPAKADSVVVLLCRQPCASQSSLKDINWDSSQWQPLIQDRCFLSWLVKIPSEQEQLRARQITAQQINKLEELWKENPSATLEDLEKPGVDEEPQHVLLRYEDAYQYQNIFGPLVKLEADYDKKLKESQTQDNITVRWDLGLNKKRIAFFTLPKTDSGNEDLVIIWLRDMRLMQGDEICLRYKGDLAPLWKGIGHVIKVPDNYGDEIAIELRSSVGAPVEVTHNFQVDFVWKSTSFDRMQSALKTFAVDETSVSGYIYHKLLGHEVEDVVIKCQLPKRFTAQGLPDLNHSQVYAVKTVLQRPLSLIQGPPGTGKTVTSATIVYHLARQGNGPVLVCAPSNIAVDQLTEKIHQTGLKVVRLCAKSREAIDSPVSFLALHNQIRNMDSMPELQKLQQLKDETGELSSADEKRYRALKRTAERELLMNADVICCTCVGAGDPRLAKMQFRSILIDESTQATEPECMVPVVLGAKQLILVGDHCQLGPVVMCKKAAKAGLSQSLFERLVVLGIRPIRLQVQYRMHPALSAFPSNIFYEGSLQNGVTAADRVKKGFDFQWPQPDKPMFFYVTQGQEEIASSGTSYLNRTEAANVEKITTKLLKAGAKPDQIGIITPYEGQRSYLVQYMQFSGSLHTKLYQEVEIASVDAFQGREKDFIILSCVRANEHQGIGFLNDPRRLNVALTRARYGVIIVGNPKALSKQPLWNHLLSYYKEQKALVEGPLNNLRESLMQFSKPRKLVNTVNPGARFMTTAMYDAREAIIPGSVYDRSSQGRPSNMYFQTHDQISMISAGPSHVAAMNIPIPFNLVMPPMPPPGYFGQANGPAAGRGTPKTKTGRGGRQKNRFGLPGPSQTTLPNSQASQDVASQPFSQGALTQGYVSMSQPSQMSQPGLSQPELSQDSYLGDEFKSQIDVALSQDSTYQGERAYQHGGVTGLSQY

Here are results for two molecules from paper PMC8973849.

No constants are given. Whether binding was seen depends on the method and setting. Binding seen in cells or lysates may run through a third protein. Some entries that bind do so weakly or less than the wild type.

For “Phosphorylated UPF1 (from UniProt Q9EPU0 1-1124)”, the binding result is “binds”.

B1: SMG5 (protein, UniProt Q6ZPY2 1-1017)
chain: MSQGPPPGESSEPEAKVLHTKRLYRAVVEAVHRLDLILCNKAAYQEVFKPENVSLRNKLRELCVKLMFLHPVDYGRKAEELLWRKVYYEVIQLIKTNKKHIHSRSTLECAYRTHLVAGIGFYQHLLLYIQSHYQLELQCCIDWTHVTDPLMGFKKPVSASGKEMDWAQMACHRCLVYLGDLSRYQNELAGVDTELLAERFYYQALSVAPQIGMPFNQLGTLAGSKYYNVEAMYCYLRCIQSEVSFEGAYGNLKRLYDKAAKMYHQLKKSETRKLSPSKKRCKDIKRLLVNFMYLQSLLQPKSSSVDSELTSLCQSVLEDFNLCLFYLPSSPNLGLTNEDEEECESGYAFLPDLLIFQMAIICLMGVHSLKRAGSKHYSAAIAFTLALFSHLINHVNIRLQAELEEGENPVSAFQSDGTDEPESKEALEKEEPEPEPPTVVPQADEGRKSRKHSRLSCLRRRRRHHPPKAGDDSDLSEGFESDSSHDSAQASDGSDSGSDKSLEGRGTAFDAETDSEMNSQESRSDLEDMEDEEGTRSPAQEPPQARSEVPDSLNGPLGPSEASIASNLQAMSTQMFQTKRCFRLAPTFSNLLLQPTTEPNSVASHRPCVNGDMDKPLEPASEDGSESEGSESSNRSCRNERSLQEKLQALMAEGLLPAVKVFLDWLRTNPDLIIVCAQSSQSLWNRLSVLLNLLPASAELQDSGLALCSEVQGLLEGCELPDLPASLLLPEDMALRNLPPLRAAHRRFNFDADRPLLSALEESVVRICCIRSFGHFVARLQGSILQFNPEVGIFVSIAQSEQESLLQQAQAQFRMAEEEARRNRLMRDMAQLRLQLEVSQLEGSLQQPKAQSAMSPYLIPDTQALCYHLPLIRQLATSGRFIIIIPRTVIDGLDLLKKEQPGARDGIRYLEAEFKKGNRYIRCQKEVGKSFERHKLKRQDADAWTLYKILDSCRQLTLAQGAGEEDPSGMVTIITGLHLDSPSALSGPMQAALQAAAHASVDVKNVLDFYRQWKEIG
As for B1, the binding entry is given as “binds”.
